These are yes or no findings as the source states them, for the method shown. Some binding calls cover weakened binding; strength is not graded here. For some of these results: Tags and fused reporters may be left off the sequences shown.

Assay [1] addresses T1, combination of human MCAM domains 1 and 2 (MCAMhFc domain construct) (human) (UniProt P43121).
T1 sequence: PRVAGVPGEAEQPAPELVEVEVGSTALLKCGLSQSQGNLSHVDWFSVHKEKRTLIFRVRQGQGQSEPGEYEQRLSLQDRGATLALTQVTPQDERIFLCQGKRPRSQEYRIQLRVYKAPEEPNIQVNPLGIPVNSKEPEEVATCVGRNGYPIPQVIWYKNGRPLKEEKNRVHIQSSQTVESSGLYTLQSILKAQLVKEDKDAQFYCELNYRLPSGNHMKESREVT
Kind of assay: ForteBio Octet Red, MCAMhFc domains on anti-human IgG Fc biosensors, antibody at 5 ug/ml.

The target of assay [2] is T2, human MCAM, full length, expressed on transfected cells (human) (UniProt P43121).
T2 sequence: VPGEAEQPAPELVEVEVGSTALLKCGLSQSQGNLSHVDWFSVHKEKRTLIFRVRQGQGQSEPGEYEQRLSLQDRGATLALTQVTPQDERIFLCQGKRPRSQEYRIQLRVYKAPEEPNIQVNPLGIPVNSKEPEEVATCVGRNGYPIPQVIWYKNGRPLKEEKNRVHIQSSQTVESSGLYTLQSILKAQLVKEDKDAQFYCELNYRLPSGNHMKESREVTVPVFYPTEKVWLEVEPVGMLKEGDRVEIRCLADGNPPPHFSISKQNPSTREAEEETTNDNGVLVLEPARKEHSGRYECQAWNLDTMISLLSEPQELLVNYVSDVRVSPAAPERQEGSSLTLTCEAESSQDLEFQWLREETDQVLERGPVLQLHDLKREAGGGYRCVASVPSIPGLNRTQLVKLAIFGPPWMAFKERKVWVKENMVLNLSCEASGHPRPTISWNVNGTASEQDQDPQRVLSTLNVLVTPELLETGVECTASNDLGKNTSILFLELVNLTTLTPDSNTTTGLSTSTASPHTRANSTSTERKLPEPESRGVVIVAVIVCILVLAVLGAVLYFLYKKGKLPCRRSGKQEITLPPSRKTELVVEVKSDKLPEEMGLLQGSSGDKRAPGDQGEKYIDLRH
Kind of assay: affinity experiments, data not shown.

The target in assay [3] is T3, full length MCAMhFc protein (extracellular domain of human MCAM fused to human IgG) (human) (UniProt P43121).
T3 sequence: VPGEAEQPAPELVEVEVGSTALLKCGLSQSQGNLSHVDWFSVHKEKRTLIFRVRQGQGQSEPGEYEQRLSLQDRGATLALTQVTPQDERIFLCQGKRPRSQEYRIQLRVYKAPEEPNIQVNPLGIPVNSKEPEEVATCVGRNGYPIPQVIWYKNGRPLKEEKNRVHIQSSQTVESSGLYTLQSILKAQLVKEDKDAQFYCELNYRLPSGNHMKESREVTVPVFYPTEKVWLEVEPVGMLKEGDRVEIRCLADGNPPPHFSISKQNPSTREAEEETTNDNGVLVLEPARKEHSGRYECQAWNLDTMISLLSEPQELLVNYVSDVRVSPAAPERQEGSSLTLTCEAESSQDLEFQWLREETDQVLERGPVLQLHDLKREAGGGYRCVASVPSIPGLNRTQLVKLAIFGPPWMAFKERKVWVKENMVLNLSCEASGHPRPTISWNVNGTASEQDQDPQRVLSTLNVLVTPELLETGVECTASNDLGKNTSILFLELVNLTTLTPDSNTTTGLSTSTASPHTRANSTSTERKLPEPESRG
The assay is described as follows: summary of Examples 2 and 3.

B1: rat anti-human MCAM monoclonal antibody clone 2120.4.19 (antibody, V domains shown)
VH: QVQLKESGPGLVQPSQTLSLTCTVSGFSLTSNGVSWVRQPPGKGLEWIAAISSGGTTYYNSAFKSRLSISRNTSKSQVLLKMNSLQTEDTAMYFCARRYGYGWYFDFWGPGTMVTVSS
VL: DIRMTQSPSLLSASVGDRVTLNCKASQNIYNSLAWYQQKLGEGPKVLIPNANSLQTGIPSRFSGSGSGTDFTLTISSLQPEDFATYFCQQFYSGYTFGAGTKLELK
notes: also called m2120
B1: the binding entry in assay [1] is “binds”.

B2: rat anti-human MCAM monoclonal antibody clone 2107.4.10 (antibody, V domains shown)
VH: QVQLKESGPGLVQSSQTLSLTCTVSGFSLTSNGVSWVRQPPGKGLEWIAAISSGGSTYYNSAFKSRLSISRNTSKSQVLLKMNSLQTEDTGMYFCARHRPFYFDYWGQGVMVTVSS
VL: DIQVTQSPSLLSASVGDRVTLNCKGSQNIYKSLAWFRLKRGEAPKLLIYDANSLQTGIPSRFSGSGSGTDFTLTITSLQPEDVATYFCQQYYSGYTFGAGTKLELK
Turning to B2, the binding result in assay [2], in assay [3] and in assay [1] was “binds” throughout.

The values are drawn from US20150259419A1 (PROTHENA BIOSCIENCES, published 2015).
